Measured values as given in PubChem BioAssay AID330 (DTP/NCI, 2004).
The list is a part of this screen's results and no random one: it gathers tests that were run many times, whatever their T/C, doses with no T/C, and many T/C values between a quarter and a half above the control. Other doses and runs of a compound stand elsewhere. T/C: endpoint of the treated group in % of that of the vehicle group. Some entries give survivors of the animals treated and no T/C: the source files T/C as zero there, which appears to mark a toxic dose or a test without result, not a measured value. Some survivor counts are full or nearly so, which does not show that the dose was tolerated: the source hardly ever lists a survival T/C far under the control, and the zero likely stands for such cases as well. Counts of survivors are from the toxicity check (mostly the fifth day) where no day follows; animals may have died later. Schedules are NCI's codes, taken here to give the interval after Q, in days (D) or hours (H), and the number of doses after X. Where survival is the endpoint, the PubChem record calls one and a half times the control and up active, and a quarter to a half above the control has no call in these data; cut-offs in other NCI protocols can differ. Some doses were run more than once; the results are listed from low to high. Some T/C values carry the count of animals alive at the toxicity check (mostly the fifth day); without a count, all were alive then.

System: P388 leukemia ip, CD2F1 mice, survival T/C
Assay: NCI In Vivo Anticancer Drug Screen. Data for tumor model P388 Leukemia (intraperitoneal) in CD2F1 (CDF1) mice
Settings: T/C endpoint: median survival time, higher T/C = longer survival
[1] = dose: 50.0 mg/kg/injection, schedule: Q01DX009 (ip), vehicle: Klucel (hydroxypropylcellulose) (HPC)
[2] = dose: 200.0 mg/kg/injection, schedule: Q01DX005 (ip), vehicle: Klucel (hydroxypropylcellulose) (HPC)
[3] = dose: 25.0 mg/kg/injection, schedule: Q01DX009 (ip), vehicle: saline
[4] = dose: 50.0 mg/kg/injection, schedule: Q01DX009 (ip), vehicle: saline
[5] = dose: 240.0 mg/kg/injection, schedule: Q01DX005 (ip), vehicle: Klucel (hydroxypropylcellulose) (HPC)
[6] = dose: 240.0 mg/kg/injection, schedule: Q01DX005 (ip), vehicle: saline with Tween-80
[7] = dose: 100.0 mg/kg/injection, schedule: Q01DX005 (ip), vehicle: Klucel (hydroxypropylcellulose) (HPC)
[8] = dose: 50.0 mg/kg/injection, schedule: Q01DX005 (ip), vehicle: Klucel (hydroxypropylcellulose) (HPC)
[9] = dose: 50.0 mg/kg/injection, schedule: Q01DX009 (ip), vehicle: saline with Tween-80
[10] = dose: 100.0 mg/kg/injection, schedule: Q01DX009 (ip), vehicle: saline with Tween-80
[11] = dose: 200.0 mg/kg/injection, schedule: Q01DX009 (ip), vehicle: saline with Tween-80
[12] = dose: 400.0 mg/kg/injection, schedule: Q01DX009 (ip), vehicle: saline with Tween-80
[13] = dose: 240.0 mg/kg/injection, schedule: Q01DX005 (ip), vehicle: saline
[14] = dose: 5.0 mg/kg/injection, schedule: Q01DX005 (ip), vehicle: Klucel (hydroxypropylcellulose) (HPC)

Question: With `COc1cc2cc(c1Cl)NC(=O)CC(OC(=O)C(C)N(C)C(=O)C(C)C)C1(C)OC1C(C)C1CC(O)(NC(=O)O1)C(OC)/C=C/C=C(C)C2OC` (stereo unspecified) as the compound, how does the T/C (dose: 4.0 micrograms/kg/injection, schedule: Q01DX009 (ip), vehicle: distilled water + Tween-80 + alcohol) read?
Answer: 130 % of control

Question: What about the T/C (dose: 8.0 micrograms/kg/injection, schedule: Q01DX009 (ip), vehicle: distilled water + Tween-80 + alcohol) of the same compound?
Answer: 136 % of control

Question: And the survivor count (dose: 128.0 micrograms/kg/injection, schedule: Q01DX009 (ip), vehicle: distilled water + Tween-80 + alcohol)?
Answer: 6 of 6

Question: For `CSc1nc2ccc(N3C(=O)C=CC3=O)cc2s1`, which survivor count [1] is on record?
Answer: 1 of 6

Question: And the survivor count (dose: 100.0 mg/kg/injection, schedule: Q01DX009 (ip), vehicle: Klucel (hydroxypropylcellulose) (HPC))?
Answer: 2 of 6

Question: What about the survivor count (dose: 200.0 mg/kg/injection, schedule: Q01DX009 (ip), vehicle: Klucel (hydroxypropylcellulose) (HPC)) of the same compound?
Answer: 0 of 6

Question: `CN(C)C(=S)S(=O)(=O)CCCCCCS(=O)(=O)C(=S)N(C)C` was tested. Which survivor count (dose: 400.0 mg/kg/injection, schedule: Q04DX002 (ip), vehicle: Klucel (hydroxypropylcellulose) (HPC)) did it give?
Answer: 0 of 6

Question: With `Cc1nc(Nc2ccccc2C)c2ccsc2n1` as the compound, how does the survivor count [2] read?
Answer: 6 of 6

Question: `CNCCC(Oc1ccc(C(F)(F)F)cc1)c1ccccc1` (stereo unspecified) was tested. Which survivor count (dose: 100.0 mg/kg/injection, schedule: Q04DX002 (ip), vehicle: saline with Tween-80) did it give?
Answer: 6 of 6

Question: What about the survivor count (dose: 200.0 mg/kg/injection, schedule: Q04DX002 (ip), vehicle: saline with Tween-80) of the same compound?
Answer: 0 of 6

Question: And the survivor count (dose: 400.0 mg/kg/injection, schedule: Q04DX002 (ip), vehicle: saline with Tween-80)?
Answer: 0 of 6

Question: With `C=C1C(=O)C[C@H]2[C@H]3CC[C@H](C(=O)O)[C@]12CC3(C)C` as the compound, how does the survivor count (dose: 63.0 mg/kg/injection, schedule: Q01DX005 (ip), vehicle: Klucel (hydroxypropylcellulose) (HPC)) read?
Answer: 2 of 6

Question: What about the survivor count (dose: 126.0 mg/kg/injection, schedule: Q01DX005 (ip), vehicle: Klucel (hydroxypropylcellulose) (HPC)) of the same compound?
Answer: 0 of 6

Question: With `CC(/C=N/Nc1ccccc1)=N\N=c1/scc(-c2ccc(Br)cc2)n1-c1ccc(C)cc1` as the compound, how does the survivor count (dose: 200.0 mg/kg/injection, schedule: Q01DX001 (ip), vehicle: saline with Tween-80) read?
Answer: 6 of 6

Question: How did the survivor count [3] turn out when `CC([OH2+])CNCCN.CC([OH2+])CNCCN.O=[N+]([O-])[O-].[Ni+2]` (stereo unspecified) was run?
Answer: 6 of 6

Question: What about the survivor count [4] of the same compound?
Answer: 6 of 6

Question: With `Cn1c(=O)c2nc3c(=O)n(C)c(=O)n(C)c3nc2n(C)c1=O` as the compound, how does the T/C (dose: 25.0 mg/kg/injection, schedule: Q01DX009 (ip), vehicle: Klucel (hydroxypropylcellulose) (HPC)) read?
Answer: 126 % of control

Question: What about the T/C [1] of the same compound?
Answer: 129 % of control [5 of 6 alive]

Question: And the survivor count [1]?
Answer: 5 of 6

Question: With `O=c1c2nccnc2nc2n1CCCS2` as the compound, how does the survivor count (dose: 400.0 mg/kg/injection, schedule: Q01DX009 (ip), vehicle: Klucel (hydroxypropylcellulose) (HPC)) read?
Answer: 1 of 6

Question: `O=c1c2ccccc2oc2nc3ccccc3nc12` was tested. Which survivor count [5] did it give?
Answer: 1 of 6

Question: With `C[N+]1(Cc2ccccc2)C2CCC1C(CCl)C(O)C2` (stereo unspecified) as the compound, how does the survivor count [3] read?
Answer: 5 of 6

Question: What about the survivor count [4] of the same compound?
Answer: 0 of 6

Question: What does the source list for `C[N+]1(C)CC=CCC1c1ccccc1` (stereo unspecified)?
Answer: survivor count (dose: 50.0 mg/kg/injection, schedule: Q01DX005 (ip), vehicle: saline): 0 of 6; survivor count (dose: 100.0 mg/kg/injection, schedule: Q01DX005 (ip), vehicle: saline): 0 of 6; survivor count (dose: 200.0 mg/kg/injection, schedule: Q01DX005 (ip), vehicle: saline): 0 of 6

Question: How did the survivor count [2] turn out when `CC(C)c1ccc2c(c1)CCC1C(C)(CN)CCCC21C` (stereo unspecified) was run?
Answer: 3 of 6

Question: Which survivor count [6] does the source give for `Cc1cc(=O)oc2c1ccc1c(O)cccc12` here?
Answer: 0 of 6

Question: How did the survivor count [2] turn out when `O=C1/C(=C/c2ccc3c(c2)OCO3)SC(=S)N1c1ccc(Cl)c(Cl)c1` was run?
Answer: 0 of 5

Question: With `O=C(NC(Cc1c[nH]c2ccccc12)C(=O)NC(Cc1ccccc1)C(=O)O)OCc1ccccc1` (stereo unspecified) as the compound, how does the survivor count [7] read?
Answer: 6 of 6

Question: What about the survivor count [2] of the same compound?
Answer: 6 of 6

Question: With `CCC=Nc1c(O)cc(-c2ccccc2)n(C)c1=O` as the compound, how does the survivor count [6] read?
Answer: 0 of 6

Question: What does the source list for `Cc1c[nH]c2nc(C)n(-c3ccc(F)cc3)c(=N)c12`?
Answer: survivor count [8]: 1 of 6; survivor count [7]: 3 of 6; survivor count [2]: 0 of 6

Question: Which results are given for `COCCCNC1=C(C#N)C(=O)NC(c2cccc([N+](=O)[O-])c2)S1` (stereo unspecified)?
Answer: T/C [9]: 125 % of control; T/C [10]: 133 % of control; T/C [11]: 137 % of control; T/C [12]: 142 % of control

Question: Which T/C (dose: 6.25 mg/kg/injection, schedule: Q01DX009 (ip), vehicle: water) does the source give for `Cc1cc(C)nc(NN=O)c1` here?
Answer: 128 % of control

Question: What about the T/C (dose: 12.5 mg/kg/injection, schedule: Q01DX009 (ip), vehicle: water) of the same compound?
Answer: 145 % of control

Question: And the T/C (dose: 25.0 mg/kg/injection, schedule: Q01DX009 (ip), vehicle: water)?
Answer: 132 and 133 % of control

Question: What about the survivor count (dose: 50.0 mg/kg/injection, schedule: Q01DX009 (ip), vehicle: water) of the same compound?
Answer: 6 of 6

Question: How did the survivor count [6] turn out when `CC(C)CC(CO)Cc1nc2ccccc2[nH]1` (stereo unspecified) was run?
Answer: 1 of 6

Question: Which survivor count [6] does the source give for `Cc1cccc(Cl)c1NC(=O)NCCCN1CCCCC1C` (stereo unspecified) here?
Answer: 0 of 6

Question: How did the survivor count [13] turn out when `CC(C)Cc1cc(-c2cc(CC(C)C)nc(N)n2)nc(N)n1` was run?
Answer: 3 of 6

Question: Which survivor count [11] does the source give for `Nc1nc2c(C(=O)N3CCCC3)nnn2c2ccccc12` here?
Answer: 0 of 6

Question: How did the survivor count [12] turn out when `O=C1CCSc2ccccc21` was run?
Answer: 2 of 6

Question: `O=S(=O)(NCCSSCCNS(=O)(=O)c1ccccc1)c1ccccc1` was tested. Which survivor count (dose: 100.0 mg/kg/injection, schedule: Q01DX009 (ip), vehicle: other) did it give?
Answer: 6 of 6

Question: Which survivor count [6] does the source give for `CN1CC2(CO)C(c3ccccn3)N(C)C(c3ccccn3)C(CO)(C1)C2O` (stereo unspecified) here?
Answer: 0 of 6

Question: How did the survivor count [7] turn out when `CCOC(=O)C1=C(C)N[C@H](c2ccccc2[N+](=O)[O-])N[C@H]1c1ccccc1[N+](=O)[O-]` was run?
Answer: 6 of 6

Question: And the survivor count [2]?
Answer: 6 of 6

Question: Which results are given for `O=[n+]1ccn([O-])c2ccccc21.[Ni].[O-][Cl+3]([O-])([O-])O`?
Answer: T/C [9]: 132 % of control; survivor count [10]: 4 of 6; survivor count [11]: 0 of 6

Question: With `CC(CNC(=O)CCOS(C)(=O)=O)NC(=O)CCOS(C)(=O)=O` (stereo unspecified) as the compound, how does the T/C (dose: 25.0 mg/kg/injection, schedule: Q04DX003 (ip), vehicle: saline with Tween-80) read?
Answer: 127 % of control

Question: Which survivor count (dose: 120.0 mg/kg/injection, schedule: Q01DX005 (ip), vehicle: saline with Tween-80) does the source give for `COc1cc2c(cc1OC)C13CCN4CC5=CCOC(CC(=O)O)C(C5CC41)C3N2` (stereo unspecified) here?
Answer: 2 of 6

Question: What about the survivor count [6] of the same compound?
Answer: 0 of 6

Question: And the survivor count [13]?
Answer: 0 of 6

Question: What does the source list for `O=C1C(=O)c2cccnc2-c2ncccc21`?
Answer: survivor count (dose: 12.5 mg/kg/injection, schedule: Q01DX005 (ip), vehicle: Klucel (hydroxypropylcellulose) (HPC)): 3 of 6; survivor count (dose: 25.0 mg/kg/injection, schedule: Q01DX005 (ip), vehicle: Klucel (hydroxypropylcellulose) (HPC)): 1 of 6; survivor count [8]: 0 of 6; survivor count [7]: 0 of 6; survivor count [2]: 0 of 6

Question: `O=C1C(N=Nc2ccc(Cl)cc2)Sc2nc3ccccc3n21` (stereo unspecified) was tested. Which survivor count [5] did it give?
Answer: 6 of 6

Question: For `COCC1CCCN1` (stereo unspecified), which survivor count (dose: 400.0 mg/kg/injection, schedule: Q04DX002 (ip), vehicle: saline) is on record?
Answer: 1 of 6

Question: How did the survivor count [2] turn out when `CN1C(=O)CC(=O)N(c2ccccc2)c2cc(Cl)ccc21` was run?
Answer: 0 of 6

Question: Which survivor count [11] does the source give for `CC12C(=O)C(c3ccccc3)(C(c3ccccc3)=C1c1ccccc1)C1OC(=O)OC12` (stereo unspecified) here?
Answer: 6 of 6

Question: Which results are given for `C/C=C/CC1(CC)C(=O)NC(=S)NC1=O`?
Answer: survivor count [10]: 3 of 6; survivor count [11]: 3 of 6

Question: With `O=C(Nc1ccc(N=C=S)cc1Cl)c1cc(Br)cc(Br)c1O` as the compound, how does the survivor count (dose: 200.0 mg/kg/injection, schedule: Q01DX001 (ip), vehicle: Klucel (hydroxypropylcellulose) (HPC)) read?
Answer: 1 of 6

Question: And the survivor count (dose: 400.0 mg/kg/injection, schedule: Q01DX001 (ip), vehicle: Klucel (hydroxypropylcellulose) (HPC))?
Answer: 1 of 6

Question: Which results are given for `COC1=C(C)C(=O)C2=C(C1=O)C1C3CC4=C(C(=O)C(OC)=C(C)C4=O)C(CNC(=O)C(C)O)N3C(C#N)C(C2)N1C` (stereo unspecified)?
Answer: T/C (dose: 0.63 mg/kg/injection, schedule: Q01DX005 (ip), vehicle: Klucel (hydroxypropylcellulose) (HPC)): 127 and 137 % of control; T/C (dose: 1.25 mg/kg/injection, schedule: Q01DX005 (ip), vehicle: Klucel (hydroxypropylcellulose) (HPC)): 140 [5 of 6 alive] and 144 % of control; T/C [14]: 142 % of control [5 of 6 alive]; survivor count [14]: 2 of 6
